Library screen at single concentrations

Data taken from ChEMBL document CHEMBL3988442, “University of Dundee, Small-Polar-MMV Screening Library” (2021).

Values are the deposited “Percent Effect”, in %.
The record does not define 0% and 100%; most values in the screen are far below 50% and negative numbers occur (in some assays of this library far below -100).
This is an unselected part of the compounds tested.

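Whole-parasite assay of Trypanosoma brucei over 72 hours; the read-out is not stated. Concentration: 30 µM. Higher reads as stronger inhibition (inferred: compounds with an IC50 in retests scored well above the rest). Values scatter widely below zero; nearly all retest evidence comes from the higher of the two concentrations used. Size under these conditions: about 64,000 compounds, about 940 of them at 50% or above in at least one test.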

Compound,effect
Cc1nc(C)n(CCCNC(=O)C(C)n2ccnc2C(C)C)n1 (stereo not drawn),-14.88%
COc1cc2c(cc1C(=O)N1CC(c3ccncc3)C1)CCC2,-28.41%
[H][C@@]12OCCN(C(=O)c3ccnnc3)[C@@]1([H])CC[C@H]2Oc1cccnc1,9.48%
COc1c(C(=O)N2CCNC(=O)C2)cnc2c1c(C)nn2C,-28.77%
FC(F)(F)c1ccnc(N2CCCOCC2)c1,-26.86%
CNc1cc(-c2nc(CCN3CCCC3=O)no2)ccn1,-61.96%
O=C(CCC(=O)N1CCCC1c1ccsc1)N1CCOCC1 (stereo not drawn),-9.157%
CC(C)c1nn(C)c(Cl)c1CNCC(O)c1cccc(F)c1.Cl (stereo not drawn),12.47%
COC1CCN(C(=O)CC(C)(C)C)CC(=O)N(C)c2ccccc21 (stereo not drawn),-31.37%
CN(Cc1ccco1)Cc1cncc2c1CCN(c1ncccn1)C2.Cl.Cl,54.64%
COc1ccc(CCNC(=O)Nc2cc(C)nn2C)cc1,-6.641%
O=C(C1CSc2ccccc2O1)N1CCN(CCO)CC1 (stereo not drawn),-0.1079%
O=C(NCCOc1cccc(Cl)c1)C1CC(=O)N(CC2CC2)C1 (stereo not drawn),-8.075%
O=C(NCc1cccnc1)NC1CCCN(c2ncccn2)C1 (stereo not drawn),7.232%
CC(C)OCCN1CCC(Nc2ncccn2)CC1,-6.59%
Cc1nn(C)c(C)c1C1CCCN1Cc1nc(-c2ccccn2)no1 (stereo not drawn),4.223%
Cc1nc2c(c(NC3CCN(Cc4cccnc4)CC3)n1)CCNCC2,-5.001%
CCC(C)N1Cc2c(C(=O)N3CCOCC3)nn(C)c2C1.O=C(O)C(F)(F)F (stereo not drawn),-76.04%
COc1ccc(CN(C)CC2(O)CCNC2)cc1 (stereo not drawn),3.298%
O=C(O)C(F)(F)F.O=C(O)C(F)(F)F.[H][C@]12CCC[C@@]1(COCC1CCOCC1)CN(Cc1ccccn1)C2,-4.653%
CCN(CC)C(=O)C1(NCc2nc(C)c(C)o2)CCCCC1,-17.7%
COCCN1C2(CCN(CC3CC3)C2)c2ccccc2S1(=O)=O.O=C(O)C(F)(F)F (stereo not drawn),-32.24%
Cc1ccc(C2(O)CCN(C(=O)c3ccc(S(N)(=O)=O)cc3)CC2)nc1,-0.8684%
CCc1csc(C2CCCN(C(=O)c3cc(Cl)c[nH]3)C2)n1 (stereo not drawn),-14.93%
CNC(=O)c1n[nH]c2c1C(c1cccc3nsnc13)CC(=O)N2 (stereo not drawn),9.2%
COc1ccc(CNC(=O)NCC(O)(c2cccs2)C2CC2)cc1 (stereo not drawn),3.134%
CC(C)[C@H](NS(C)(=O)=O)C(=O)NCc1cc(-c2ccccc2)nn1C,-16.89%
CCc1ccc(O)c(C(=O)N2CCCN(CC(=O)N(CC)CC)CC2)c1,-26.31%
CC(C)C[C@@H](CO)n1cc(-c2cncnc2)nn1,8.713%
O=C(O)C(F)(F)F.O=C(O)C(F)(F)F.[H][C@@]12COC[C@]1(CN(C)C)CN(Cc1ccc(OC)cc1)C2,15.68%
CCN(CC)C1(Cc2cc(COC)on2)COC1,-5.827%
CC(C)c1cnc(CN(C)C2CCN(CCc3ccccn3)C2)o1 (stereo not drawn),-39.67%
Cn1ccnc1CN1CCC(c2ccnc(-c3cccc(O)c3)c2)C1 (stereo not drawn),-2.5%
CCOCCCNC(=O)c1cc(C)nc(N2CCCCC2)n1,-8.036%
CC(C)[C@@H]1CN(S(=O)(=O)Cc2ccccc2)C[C@H]1NS(=O)(=O)N(C)C,-25.42%
O=C(NCCCN1CCOCC1)c1cc(-c2ccc3c(c2)CCO3)n[nH]1,57.45%
COC[C@@H]1CCC[C@]12CN(CCc1ccccc1)CCO2.O=C(O)C(F)(F)F,-17.31%
Cc1nc(NCC2CCOCC2)cc(C2CCN2S(C)(=O)=O)n1 (stereo not drawn),3.972%
Cc1ccc(N(CCC#N)C(=O)CN2CCCC2c2cccs2)cc1 (stereo not drawn),34.75%
CC1CCN(C(=O)CSc2nc3c(cnn3CCO)c(=O)[nH]2)CC1,-24.68%
N#CC1(NC(=O)c2c(F)ccc(OC(F)F)c2F)CCOCC1,-24.37%
Cc1nc2oc(C(=O)N3CCOCC3)c(N)c2c2c1CCCC2,-39.6%
Cc1cccc(CN2CC3(CCN(Cc4ccco4)CC3)OCC2=O)n1.O=C(O)C(F)(F)F.O=C(O)C(F)(F)F,-36.74%
O=C(O)C(F)(F)F.[H][C@@]12CN(C)CCO[C@]1([H])CN(C(=O)COc1ccccc1OC)C2,-46.79%
Cc1ncc(CNC(=O)Nc2cc(C(F)(F)F)c[nH]c2=O)s1,3.457%
CC(C)N(CC1CCCN(CC(N)=O)C1)C(=O)OC(C)(C)C (stereo not drawn),-0.2453%
COCCC(=O)NC[C@H]1CC[C@H](C(c2ccccn2)N(C)C)CC1 (stereo partly drawn),5.413%
COc1cccc(CN2CCC3(CC2)CCN(C(=O)[C@@H]2CCCO2)C3)c1.O=C(O)C(F)(F)F,-52.18%
COCCC1(CO)CCCN(C(=O)c2cc(=O)[nH]c(=O)[nH]2)C1 (stereo not drawn),-9.568%
CC(O)C1CCN(c2cc(Cl)ccc2C#N)CC1 (stereo not drawn),-41.84%
O=C(Cn1cc(C(=O)O)ccc1=O)NCc1ccc(F)c(Cl)c1,19.61%
CC(C)C(C)NC(=O)CN1CCSCC1 (stereo not drawn),-34.27%
Cc1ccccc1C(C(=O)NCCSC(C)C)N(C)C (stereo not drawn),0.5961%
COc1nc2c(cc1C(=O)N(C)Cc1n[nH]c3c1CCCC3)CCC2,-4.064%
O=C(Nc1ccc(-c2csnn2)cc1)N1CC[C@H](O)C1,13.44%
COc1cc(C2SCC(=O)Nc3ccsc32)cc(OC)c1OC (stereo not drawn),-1.918%
CC(=O)Nc1cccc(CNC(=O)N(C)Cc2ccccc2)c1,-18.27%
CC(=O)c1ccc(C(=O)NCc2cccnc2N2CCCC(O)C2)s1 (stereo not drawn),-21.38%
CC1CCCCN1S(=O)(=O)NCCN/C(O)=C1/N=CC=CC1=O (stereo not drawn),-4.336%
O=C(CS(=O)(=O)c1cccc[n+]1[O-])NC1CCCc2ccccc21 (stereo not drawn),-2.367%
COc1ccc(Br)cc1NCC(=O)NC(C)(C#N)C1CC1 (stereo not drawn),-30.95%
Cc1nc(-c2cccc(C#N)c2)nn1CC1(O)CCCCC1,-32.98%
CCN(CC1CCOC1)C(=O)c1ccc(COc2ccccc2C#N)o1 (stereo not drawn),-30.27%
CN(C)Cc1nc(-n2cnc(C(=O)NCC3CC3)c2)n2ccccc12,-8.964%
N[C@H]1CCCN(S(=O)(=O)c2ccc(C(=O)NCC(F)F)cc2)C1,27.16%
CCS(=O)(=O)c1ccc2oc([C@H]3CCN(Cc4ccccn4)C3)nc2c1,-1.565%
[H][C@@]12CCN(Cc3cccc(C)n3)C[C@@]1([H])O[C@@H](C)C2,-13.25%
CN(C)c1cc2c(nn1)CCN(C(=O)c1cc3ccccc3o1)C2,-33.52%
CC(=O)N1CCN(C(=O)CN2CCCC2c2c(C)nn(C)c2C)CC1 (stereo not drawn),-7.305%

For reference, 9 entries once more:

Compound,effect
Cc1nc(-c2cccc(C#N)c2)nn1CC1(O)CCCCC1,-32.98%
CC(C)[C@@H]1CN(S(=O)(=O)Cc2ccccc2)C[C@H]1NS(=O)(=O)N(C)C,-25.42%
COc1ccc(CNC(=O)NCC(O)(c2cccs2)C2CC2)cc1 (stereo not drawn),3.134%
COc1cc(C2SCC(=O)Nc3ccsc32)cc(OC)c1OC (stereo not drawn),-1.918%
CNC(=O)c1n[nH]c2c1C(c1cccc3nsnc13)CC(=O)N2 (stereo not drawn),9.2%
CCOCCCNC(=O)c1cc(C)nc(N2CCCCC2)n1,-8.036%
CCc1ccc(O)c(C(=O)N2CCCN(CC(=O)N(CC)CC)CC2)c1,-26.31%
Cc1nc(C)n(CCCNC(=O)C(C)n2ccnc2C(C)C)n1 (stereo not drawn),-14.88%
O=C(O)C(F)(F)F.O=C(O)C(F)(F)F.[H][C@]12CCC[C@@]1(COCC1CCOCC1)CN(Cc1ccccn1)C2,-4.653%